Reference: PubChem BioAssay AID1259254 (NCATS, 2017)

- Test: 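Genome-wide screen for genes that prevent DNA re-replication in cancer cells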 (primary screen)
- System: human HCT116 colorectal cancer cells
- Knock-down reagent: single siRNA against human genes
- Duration: 3 days
- Measured: 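Nuclei stained with Hoechst and imaged; cell-cycle phase assigned by DNA content; G2 share scaled per plate, non-targeting siRNA 0%, GMNN siRNA 100%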
- Reading the numbers: G2 robust z-score: higher = more G2 cells, more excess DNA replication
- Call rule: 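Active siRNAs have a G2 robust z of 5 or more median absolute deviations over the median, which in these data means about 38% or higher of GMNN control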
The whole screen tested about 59,000 reagents; this is a random part of them. About 1,550 of them (2.6%) were called active. 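G2 share is only a proxy for re-replication; each gene was hit by three separate siRNAs, and active genes were retested.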 A number with no mark means an inactive call. The numbers tell different reagents against one gene apart. Not all columns of the deposit are shown. Not given: the amount of reagent.

COA5 (cytochrome c oxidase assembly factor 5) #1 scored G2 robust z-score -0.684.
COA5 (cytochrome c oxidase assembly factor 5) #2 showed G2 robust z-score -0.232.
Depletion of COA5 (cytochrome c oxidase assembly factor 5) #3 resulted in: G2 robust z-score -0.532.
After knock-down of ABCB11 (ATP binding cassette subfamily B member 11) #1, the record shows G2 robust z-score 0.268.
ABCB11 (ATP binding cassette subfamily B member 11) #2 gave G2 robust z-score -0.447.
After knock-down of ABCB11 (ATP binding cassette subfamily B member 11) #3, the screen gave G2 robust z-score -1.12.
DRD1 (dopamine receptor D1) #1 showed G2 robust z-score -0.376.
For DRD1 (dopamine receptor D1) #2 the deposit lists G2 robust z-score -0.33.
DRD1 (dopamine receptor D1) #3 scored G2 robust z-score -0.152.
After knock-down of MPV17 (mitochondrial inner membrane protein MPV17) #1 the results were G2 robust z-score -0.0298.
Depletion of MPV17 (mitochondrial inner membrane protein MPV17) #2 came out at: G2 robust z-score -0.611.
MPV17 (mitochondrial inner membrane protein MPV17) #3 scored G2 robust z-score 0.93.

2 successive reagents from above:
DRD1 (dopamine receptor D1) #2 | G2 robust z-score = -0.33
DRD1 (dopamine receptor D1) #3 | G2 robust z-score = -0.152
